Measurements from “University of Dundee, Small-Polar-MMV Screening Library” (2021), ChEMBL document CHEMBL3988442.

By UniProt entry, the sequences of proteins in these tests, tags left out. Residues count along the entry.
UniProt Q8IDJ8, 1-583: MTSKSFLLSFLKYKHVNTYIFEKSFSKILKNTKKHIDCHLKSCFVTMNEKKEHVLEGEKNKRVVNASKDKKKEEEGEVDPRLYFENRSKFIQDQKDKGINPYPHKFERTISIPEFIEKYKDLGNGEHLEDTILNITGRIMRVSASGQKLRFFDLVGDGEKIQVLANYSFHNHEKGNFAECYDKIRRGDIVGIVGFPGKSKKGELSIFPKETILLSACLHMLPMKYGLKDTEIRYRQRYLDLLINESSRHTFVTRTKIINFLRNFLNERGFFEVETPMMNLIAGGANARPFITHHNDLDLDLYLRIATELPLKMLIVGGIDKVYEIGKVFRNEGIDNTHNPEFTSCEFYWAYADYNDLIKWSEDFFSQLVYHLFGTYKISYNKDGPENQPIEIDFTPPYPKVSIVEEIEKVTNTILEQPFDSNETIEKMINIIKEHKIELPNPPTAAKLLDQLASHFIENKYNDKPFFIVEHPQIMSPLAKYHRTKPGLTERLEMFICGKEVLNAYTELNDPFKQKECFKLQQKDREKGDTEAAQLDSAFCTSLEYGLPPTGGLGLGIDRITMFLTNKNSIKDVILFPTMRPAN

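Lysine-tRNA ligase, Plasmodium falciparum 3D7 (UniProt Q8IDJ8). Enzyme assay of the cytosolic lysyl-tRNA synthetase in 384-well plates, read by luminescence. Compounds at 30 µM. Higher reads as stronger inhibition, judged from the few compounds that gave an IC50. About 69,000 compounds were tested under these conditions; 0.071% (about 49) showed 50% or more at least once.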

Results are given as percent effect. The controls that fix the scale are not given in the record; negative values are as filed. Compounds were drawn at random from those tested, without regard to their results.

* CN(C)C(=O)c1ccn(-c2ccc3ccccn23)n1 | 0.9257%
* CN(Cc1c(F)cccc1Cl)C(=O)Nc1cnn(CC(N)=O)c1 | 6.928%
* COc1cc(CNc2nc(C3CC3)no2)cc(OC)c1OC | 1.472%
* CCc1ncc2c(n1)CN(c1cc(N3CCN(C)CC3)nc(N)n1)C2 | 2.719%
* Cc1nc(C)n(CC2CCCCN2CC(=O)NC2CCOCC2)n1 (configuration not stated) | 4.718%
* COC(=O)C(c1ccccc1)N(C)C(=O)c1ccnc(C)n1 (configuration not stated) | 0.2893%
* CC(C)n1nnc(CC(=O)NCC2(c3ccccc3F)CCOCC2)n1 | 0.3272%
* O=C(NCc1ccccc1CN1CCOCC1)c1ccc(Br)cc1F | 8.348%
* COC(=O)NCCCC(=O)NC1(c2cccc(Cl)c2)CC1 | 1.259%
* COc1cc2c(cc1CNC(=O)C(C)n1ccnc1C(C)C)CCC2 (configuration not stated) | 5.485%
* CN(Cc1cnn(C)c1)C(=O)C1COCC(=O)N1Cc1ccccc1 (configuration not stated) | 5.719%
* Cc1cccc(C(=O)N2CCN(c3ccc(-n4cccc4)nn3)CC2)c1 | -0.3665%
* Cc1ccc(S(=O)(=O)NC(C)(C)CN)c(F)c1 | 7.165%
* CCN(CC)CCNS(=O)(=O)c1cccc(CSC)c1 | 6.756%
* CC(NCC1=Cc2cc(Cl)ccc2OC1)c1nnc2n1CCCC2 (configuration not stated) | 3.239%
* CCN(CC)C(CNC(=O)c1c(C)noc1C(C)C)c1ccsc1 (configuration not stated) | -1.491%
* CC(NC(=O)CCC(=O)c1cccs1)c1nnc2n1CCCCC2 (configuration not stated) | 6.951%
* Cc1cnn(CC2CCCCN2C(=O)c2ccc(N(C)C)nc2)c1 (configuration not stated) | 0.8805%
* Cc1ccc(-c2cc(N)c(=O)n(CC(=O)NCC3CCCCC3)n2)s1 | 5.052%
* Cc1ccc(CNCC2CCc3nnc(C(C)C)n3C2)s1 (configuration not stated) | 2.99%
* O=C(NCCO)Nc1c(F)cc(F)cc1-c1ccccc1 | 0.1986%
* OC(CNc1nc(C2CCCC2)nc2c1CCNCC2)C(F)(F)F (configuration not stated) | -0.4882%
* CN(C)Cc1cnc2n1CCN(C(=O)Cc1cccc(F)c1)CC2 | 12.37%
* COc1cc(C(=O)N2CCCC(n3cncn3)C2)ccc1C (configuration not stated) | 0.439%
* CCn1ncc(CN2CCCC(C(=O)c3ccc(Cl)cc3)C2)c1C (configuration not stated) | 5.139%
* CCOc1ccc(NC2CCN(CC(F)(F)F)C2=O)cc1C (configuration not stated) | 2.739%
* Cc1noc([C@@H]2C[C@H](NC(=O)NC(C)C)CN2C)n1 | 3.102%
* NS(=O)(=O)N1CCc2ccc(NC(=O)CC(F)(F)F)cc21 | 6.328%
* CS(=O)(=O)N1CCC(NC(=O)COc2ccccc2Cl)CC1 | 0.5627%
* c1cnn(CCCO[C@@H]2CC[C@H]3[C@H]2OCCN3CC2CC2)c1 | -0.3066%
* COC[C@]1(O)CCN(C2CCN(c3ccc(Cl)cc3)CC2)CC1(C)C | -1.263%
* COCCCN1C(=O)CC[C@H]2CN(Cc3ccc4nonc4c3)CC[C@H]21 | 1.074%
* Cc1cccc2c1cnn2CCC(=O)NCc1csc(C2CC2)n1 | -0.9603%
* Cc1noc(C2CCCN(C(=O)c3ccc(Br)cc3F)C2)n1 (configuration not stated) | 11.51%
* CCNC(=O)NC(=O)CN(CC(C)O)c1ccccc1 (configuration not stated) | 8.569%
* CC(C)CCc1cc(C(=O)O)nc2[nH]c(=O)[nH]c(=O)c12 | 3.203%
* Cc1oc(C(C)C)cc1C(=O)N1C[C@H]2CC[C@@H]1CN(C(=O)N(C)C)C2 | 0.2706%
* CCCC(C#N)NC(=O)c1cc(Br)c2c(c1)OCCO2 (configuration not stated) | 1.469%
* Cc1ccc(N2CCC3(CCN(C(=O)c4ccsc4)C3)CC2)nn1 | 2.555%
* O=C(CC1CCCC1)N1CCC(c2nnc(-c3ccccn3)o2)CC1 | -1.868%
* Cc1nc(C2CCCN2CC(=O)Nc2c(C)nn(C)c2C)no1 (configuration not stated) | -0.4479%
* CNC(=O)N1CCN(C(=O)N(C)C)CC2(CC(=O)N(C)C2)C1 (configuration not stated) | 1.489%
* OC1(CN2CCCC2)COCCN(c2cc(C(F)(F)F)ccn2)C1 (configuration not stated) | 0.3493%
* CCc1cc(N(C)Cc2ccncn2)n2nccc2n1 | 1.334%
* Cc1ccc(C(=O)N2CCc3ncc(Cn4cccn4)n3CC2)o1 | 1.698%
* CN(C)CCN1C(=O)CC[C@@H]2[C@H]1CCN2Cc1cccc(C#N)c1 | 0.6941%
* COCC1COCCC12CCN(C(=O)Cc1cccc(OC)c1)CC2 (configuration not stated) | -0.6175%
* COc1ccc(S(=O)(=O)NC2(CC(N)=O)CCC2)cc1 | -0.2266%
* Cc1ccc(CN(C(=O)NC2CCS(=O)(=O)C2)C2CC2)o1 (configuration not stated) | 4.428%